This note sets out measurements from US20250269045A1 (PHARMAESSENTIA, published 2025).

Results are given in words; binding and its absence hold for the method and conditions named. Some entries that bind do so weakly or less than the wild type.

The target of the assay is T1, granulocyte colony-stimulating factor receptor (G-CSFR) (human) (UniProt Q99062).
T1 sequence (looked up): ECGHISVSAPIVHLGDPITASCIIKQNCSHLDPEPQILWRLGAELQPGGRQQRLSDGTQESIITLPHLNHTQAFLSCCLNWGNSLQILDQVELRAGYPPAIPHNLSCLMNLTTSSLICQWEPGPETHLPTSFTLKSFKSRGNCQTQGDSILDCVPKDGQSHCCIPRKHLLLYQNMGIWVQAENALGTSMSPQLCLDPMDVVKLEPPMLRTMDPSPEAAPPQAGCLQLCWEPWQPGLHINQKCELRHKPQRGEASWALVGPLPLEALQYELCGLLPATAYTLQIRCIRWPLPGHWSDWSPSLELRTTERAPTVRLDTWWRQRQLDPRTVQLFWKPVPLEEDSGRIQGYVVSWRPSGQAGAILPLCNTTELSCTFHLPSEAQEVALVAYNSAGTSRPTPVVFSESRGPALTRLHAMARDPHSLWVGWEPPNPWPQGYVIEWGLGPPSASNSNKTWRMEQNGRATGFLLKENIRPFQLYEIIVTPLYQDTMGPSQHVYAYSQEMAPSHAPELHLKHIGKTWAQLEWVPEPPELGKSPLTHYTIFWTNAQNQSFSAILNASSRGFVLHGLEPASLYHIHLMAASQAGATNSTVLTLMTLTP
Briefly: SPR (Biacore CM5), G-CSFR immobilised.

B1: Filgrastim Reference Standard (ligand, human, UniProt P09919-2 31-204, looked up)
chain: TPLGPASSLPQSFLLKCLEQVRKIQGDGAALQEKLCATYKLCHPEELVLLGHSLGIPWAPLSSCPSQALQLAGCLSQLHSGLFLYQGLLQALEGISPELGPTLDTLQLDVADFATTIWQQMEELGMAPALQPTQGAMPAFASAFQRRAGGVLVASHLQSFLEVSYRVLRHLAQP
notes: also called Filgrastim RS
Consider B1, for which the binding entry is “binds”.

B2: MetHuG-CSF (ligand)
chain: MTPLGPASSLPQSFLLKCLEQVRKIQGDGAALQEKLCATYKLCHPEELVLLGHSLGIPWAPLSSCPSQALQLAGCLSQLHSGLFLYQGLLQALEGISPELGPTLDTLQLDVADFATTIWQQMEELGMAPALQPTQGAMPAFASAFQRRAGGVLVASHLQSFLEVSYRVLRHLAQP
notes: 175 aa: the 174 aa human G-CSF plus an N-terminal Met; also called MetHuG-CSF intermediate; human G-CSF with additional N-terminal Met
On to B2, for which the binding entry was “binds”.
